Results from the supplement of paper PMC4604168 (melanoma cell lines).
The other results are listed elsewhere or left out. Many values rest on one well or one pass, so single values are uncertain.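 The apoptosis fraction was the count of cleaved-PARP antibody-stained nuclei relative to all DNA-stained nuclei, imaged in 1,536-well plates. Screening doses were set so most cells survived, and baseline and induced cleaved-PARP levels vary greatly across cell lines.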

Tested on: COLO829
Test: cleaved PARP positive nuclei fraction relative to DMSO control; melanoma cells; higher = more apoptosis
Conditions: library dose: low library concentration; 72 h

| Structure (SMILES) | cleaved PARP positive nuclei fraction [%] |
| --- | --- |
| O=C(/C=C/c1cccnc1)NCCCCC1CCN(C(=O)c2ccccc2)CC1 + CS(=O)(=O)c1ccc(C(=O)Nc2ccc(Cl)c(-c3ccccn3)c2)c(Cl)c1 [vismodegib] (first compound 0.01 µM, partner dose 1 µM) | 261 |
| O=C(Nc1cc(C(F)(F)F)cc(C(F)(F)F)c1)c1cc(Cl)ccc1O + CCCCCCCCc1ccc(CCC(N)(CO)CO)cc1 [fingolimod] (first compound 0.016 µM, partner dose 2 µM) | 185 |
| CC[C@]1(O)C[C@H]2CN(CCc3c([nH]c4ccccc34)[C@@](C(=O)OC)(c3cc4c(cc3OC)N(C=O)[C@H]3[C@@](O)(C(=O)OC)[C@H](OC(C)=O)[C@]5(CC)C=CCN6CC[C@]43[C@@H]65)C2)C1 [vincristine] + CCCCCCCCCCCCCCCCCCOP(=O)([O-])OC1CC[N+](C)(C)CC1 [Perifosine] (first compound 0.0001 µM, partner dose 0.4 µM) | 178 |
| Cc1cc(Nc2cc(N3CCN(C)CC3)nc(Sc3ccc(NC(=O)C4CC4)cc3)n2)n[nH]1 [Tozasertib] + C#Cc1cccc(Nc2ncnc3cc(OCCOC)c(OCCOC)cc23)c1 [erlotinib] (first compound 0.006 µM, partner dose 0.8 µM) | 70.9 |
| Cc1cc(Nc2cc(N3CCN(C)CC3)nc(Sc3ccc(NC(=O)C4CC4)cc3)n2)n[nH]1 [Tozasertib] + CO[C@H]1C[C@@H]2CC[C@@H](C)[C@@](O)(O2)C(=O)C(=O)N2CCCC[C@H]2C(=O)O[C@H]([C@H](C)C[C@@H]2CC[C@@H](OCCO)[C@H](OC)C2)CC(=O)[C@H](C)/C=C(\C)[C@@H](O)[C@@H](OC)C(=O)[C@H](C)C[C@H](C)/C=C/C=C/C=C/1C [everolimus] (first compound 0.006 µM, partner dose 0.02 µM) | 173 |
